Experimental data: the supplement of paper PMC10849652
The other results are listed elsewhere or left out.

Chains of the proteins cited; added tags and fusions are not shown. Lines headed by an entry give the natural chain unless they say otherwise; changes in a name come on top.
UniProt Q9P2D6: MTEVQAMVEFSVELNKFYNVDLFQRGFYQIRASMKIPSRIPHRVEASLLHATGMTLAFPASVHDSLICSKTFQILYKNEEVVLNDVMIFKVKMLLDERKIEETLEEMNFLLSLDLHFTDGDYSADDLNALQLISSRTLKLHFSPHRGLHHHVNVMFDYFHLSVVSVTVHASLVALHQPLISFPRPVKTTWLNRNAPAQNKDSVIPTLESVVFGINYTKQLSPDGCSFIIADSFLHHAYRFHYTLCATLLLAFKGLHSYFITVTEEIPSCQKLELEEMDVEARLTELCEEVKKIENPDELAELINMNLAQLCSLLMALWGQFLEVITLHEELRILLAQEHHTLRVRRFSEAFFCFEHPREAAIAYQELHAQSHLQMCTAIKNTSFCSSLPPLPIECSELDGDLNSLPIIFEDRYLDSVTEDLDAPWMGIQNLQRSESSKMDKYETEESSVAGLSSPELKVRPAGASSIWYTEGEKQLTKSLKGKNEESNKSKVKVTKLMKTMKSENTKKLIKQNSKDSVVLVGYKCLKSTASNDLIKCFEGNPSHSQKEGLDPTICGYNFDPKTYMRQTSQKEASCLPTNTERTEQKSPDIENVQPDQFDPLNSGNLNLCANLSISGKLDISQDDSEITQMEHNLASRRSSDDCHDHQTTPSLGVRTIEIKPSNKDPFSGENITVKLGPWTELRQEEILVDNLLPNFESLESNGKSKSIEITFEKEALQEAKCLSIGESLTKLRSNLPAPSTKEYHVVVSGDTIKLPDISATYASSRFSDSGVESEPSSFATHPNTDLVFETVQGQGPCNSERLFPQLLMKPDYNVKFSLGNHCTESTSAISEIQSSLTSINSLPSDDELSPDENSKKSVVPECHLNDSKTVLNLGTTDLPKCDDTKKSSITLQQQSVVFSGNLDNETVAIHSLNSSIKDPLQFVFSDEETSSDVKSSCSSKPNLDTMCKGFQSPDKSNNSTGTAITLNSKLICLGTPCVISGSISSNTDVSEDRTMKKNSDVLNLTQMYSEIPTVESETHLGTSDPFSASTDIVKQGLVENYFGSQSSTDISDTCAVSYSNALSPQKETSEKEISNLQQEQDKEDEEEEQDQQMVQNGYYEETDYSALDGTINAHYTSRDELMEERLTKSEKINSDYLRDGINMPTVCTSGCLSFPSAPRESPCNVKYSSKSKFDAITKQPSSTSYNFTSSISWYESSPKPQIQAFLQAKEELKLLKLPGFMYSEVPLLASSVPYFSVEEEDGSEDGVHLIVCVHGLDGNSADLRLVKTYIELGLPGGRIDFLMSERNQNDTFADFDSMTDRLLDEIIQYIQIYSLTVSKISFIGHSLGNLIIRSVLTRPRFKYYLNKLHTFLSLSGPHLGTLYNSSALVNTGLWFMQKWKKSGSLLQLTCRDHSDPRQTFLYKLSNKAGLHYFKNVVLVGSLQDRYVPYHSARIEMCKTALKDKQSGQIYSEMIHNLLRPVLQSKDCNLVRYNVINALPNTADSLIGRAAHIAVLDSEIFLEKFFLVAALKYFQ
UniProt Q7Z309: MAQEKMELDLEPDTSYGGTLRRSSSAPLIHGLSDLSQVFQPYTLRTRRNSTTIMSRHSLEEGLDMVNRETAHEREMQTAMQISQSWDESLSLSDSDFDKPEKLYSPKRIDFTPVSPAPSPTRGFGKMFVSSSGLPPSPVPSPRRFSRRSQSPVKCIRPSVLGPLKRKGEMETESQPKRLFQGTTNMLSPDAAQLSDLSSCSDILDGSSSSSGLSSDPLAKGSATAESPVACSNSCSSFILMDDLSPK
UniProt Q9Y421: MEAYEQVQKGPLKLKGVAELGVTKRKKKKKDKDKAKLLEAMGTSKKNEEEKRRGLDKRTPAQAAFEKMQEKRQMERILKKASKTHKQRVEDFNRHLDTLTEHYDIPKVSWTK
UniProt Q8N8J7: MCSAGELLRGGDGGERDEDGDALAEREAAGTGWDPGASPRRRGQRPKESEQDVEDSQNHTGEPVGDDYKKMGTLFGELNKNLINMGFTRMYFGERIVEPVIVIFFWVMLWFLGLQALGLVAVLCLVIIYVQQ
UniProt Q13868, whole entry, looked up: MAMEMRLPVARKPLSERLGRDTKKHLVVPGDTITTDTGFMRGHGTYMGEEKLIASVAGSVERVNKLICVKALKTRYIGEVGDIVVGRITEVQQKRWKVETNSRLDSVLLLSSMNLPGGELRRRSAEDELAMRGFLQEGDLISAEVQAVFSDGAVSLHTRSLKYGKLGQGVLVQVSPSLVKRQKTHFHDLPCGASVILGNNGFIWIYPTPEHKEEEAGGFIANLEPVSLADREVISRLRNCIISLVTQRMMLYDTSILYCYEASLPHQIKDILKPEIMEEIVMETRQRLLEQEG
UniProt Q86X53: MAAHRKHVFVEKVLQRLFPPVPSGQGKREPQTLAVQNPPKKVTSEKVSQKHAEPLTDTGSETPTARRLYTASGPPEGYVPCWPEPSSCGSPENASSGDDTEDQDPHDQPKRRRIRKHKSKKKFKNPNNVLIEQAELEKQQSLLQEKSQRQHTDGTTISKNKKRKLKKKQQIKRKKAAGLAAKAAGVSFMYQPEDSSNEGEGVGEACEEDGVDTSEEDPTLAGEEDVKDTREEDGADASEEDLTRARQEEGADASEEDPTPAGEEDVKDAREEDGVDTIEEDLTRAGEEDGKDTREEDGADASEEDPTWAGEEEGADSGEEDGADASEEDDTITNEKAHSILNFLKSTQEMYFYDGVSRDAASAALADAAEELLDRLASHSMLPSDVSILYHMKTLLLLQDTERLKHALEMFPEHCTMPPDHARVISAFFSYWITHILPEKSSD
UniProt Q9Y2C4: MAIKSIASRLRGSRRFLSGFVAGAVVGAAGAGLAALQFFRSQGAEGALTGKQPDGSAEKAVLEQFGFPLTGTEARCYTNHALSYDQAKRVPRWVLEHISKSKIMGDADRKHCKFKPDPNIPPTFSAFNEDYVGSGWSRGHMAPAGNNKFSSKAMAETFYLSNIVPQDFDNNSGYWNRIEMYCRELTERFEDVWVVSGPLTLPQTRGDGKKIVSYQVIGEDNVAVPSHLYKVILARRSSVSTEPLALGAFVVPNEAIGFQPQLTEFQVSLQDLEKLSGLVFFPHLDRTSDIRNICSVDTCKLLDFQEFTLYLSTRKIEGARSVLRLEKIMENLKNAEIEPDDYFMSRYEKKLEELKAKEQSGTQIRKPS
UniProt Q8WUF8: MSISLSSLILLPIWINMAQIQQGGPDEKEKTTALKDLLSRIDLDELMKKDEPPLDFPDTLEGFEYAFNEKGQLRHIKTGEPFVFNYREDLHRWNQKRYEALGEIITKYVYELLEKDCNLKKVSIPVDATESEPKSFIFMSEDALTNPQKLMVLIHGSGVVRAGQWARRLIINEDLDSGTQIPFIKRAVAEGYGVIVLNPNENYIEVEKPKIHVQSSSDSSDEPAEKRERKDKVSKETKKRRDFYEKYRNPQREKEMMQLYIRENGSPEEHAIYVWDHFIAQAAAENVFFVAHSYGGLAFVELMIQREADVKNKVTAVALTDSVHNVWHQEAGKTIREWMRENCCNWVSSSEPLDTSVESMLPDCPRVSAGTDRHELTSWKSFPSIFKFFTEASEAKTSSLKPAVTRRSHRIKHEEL
UniProt P16930: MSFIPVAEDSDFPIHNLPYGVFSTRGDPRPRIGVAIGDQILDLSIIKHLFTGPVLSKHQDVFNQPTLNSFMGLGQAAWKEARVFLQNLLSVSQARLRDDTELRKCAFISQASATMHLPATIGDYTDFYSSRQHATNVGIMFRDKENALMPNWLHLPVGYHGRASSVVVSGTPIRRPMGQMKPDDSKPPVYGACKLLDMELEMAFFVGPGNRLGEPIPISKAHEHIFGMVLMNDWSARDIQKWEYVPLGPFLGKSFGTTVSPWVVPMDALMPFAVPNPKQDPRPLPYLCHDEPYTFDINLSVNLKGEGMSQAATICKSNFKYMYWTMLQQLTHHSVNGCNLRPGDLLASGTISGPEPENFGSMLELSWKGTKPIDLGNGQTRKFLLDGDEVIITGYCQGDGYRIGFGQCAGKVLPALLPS
UniProt Q8IWE2: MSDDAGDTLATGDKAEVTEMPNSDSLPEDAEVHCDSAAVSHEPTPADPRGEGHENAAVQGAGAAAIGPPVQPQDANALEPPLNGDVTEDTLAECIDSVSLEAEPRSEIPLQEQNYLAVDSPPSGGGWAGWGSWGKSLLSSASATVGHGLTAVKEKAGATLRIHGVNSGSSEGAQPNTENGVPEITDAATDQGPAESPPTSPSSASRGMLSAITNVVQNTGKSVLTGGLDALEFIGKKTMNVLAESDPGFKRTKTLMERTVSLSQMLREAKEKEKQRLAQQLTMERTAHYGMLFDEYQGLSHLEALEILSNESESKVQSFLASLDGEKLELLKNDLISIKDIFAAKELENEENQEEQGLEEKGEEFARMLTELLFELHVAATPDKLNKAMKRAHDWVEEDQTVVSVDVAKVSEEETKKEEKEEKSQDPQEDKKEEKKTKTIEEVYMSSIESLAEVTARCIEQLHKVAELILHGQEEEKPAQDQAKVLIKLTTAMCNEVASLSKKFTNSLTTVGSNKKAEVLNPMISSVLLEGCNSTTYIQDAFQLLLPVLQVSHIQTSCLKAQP
UniProt Q9H0Q0: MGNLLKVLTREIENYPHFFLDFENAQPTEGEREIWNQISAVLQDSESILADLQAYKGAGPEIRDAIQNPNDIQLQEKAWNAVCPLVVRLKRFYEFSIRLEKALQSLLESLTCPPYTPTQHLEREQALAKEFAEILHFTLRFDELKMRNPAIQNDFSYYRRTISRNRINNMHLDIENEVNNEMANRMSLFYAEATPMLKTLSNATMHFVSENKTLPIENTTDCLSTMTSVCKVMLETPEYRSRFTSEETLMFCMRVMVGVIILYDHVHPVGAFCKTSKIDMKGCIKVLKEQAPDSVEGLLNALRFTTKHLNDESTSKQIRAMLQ
UniProt Q6IPR1: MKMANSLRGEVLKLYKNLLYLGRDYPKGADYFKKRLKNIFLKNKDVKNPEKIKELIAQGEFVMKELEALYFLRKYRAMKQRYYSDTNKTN
UniProt Q96GK7: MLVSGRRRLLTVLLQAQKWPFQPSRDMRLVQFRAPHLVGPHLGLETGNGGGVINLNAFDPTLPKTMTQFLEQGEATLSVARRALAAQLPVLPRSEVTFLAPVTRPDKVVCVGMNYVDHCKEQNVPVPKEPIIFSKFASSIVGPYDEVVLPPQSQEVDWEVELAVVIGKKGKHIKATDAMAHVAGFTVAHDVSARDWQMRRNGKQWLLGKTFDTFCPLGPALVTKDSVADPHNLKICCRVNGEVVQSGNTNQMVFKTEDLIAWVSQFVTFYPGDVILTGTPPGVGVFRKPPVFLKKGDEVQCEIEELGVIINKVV
UniProt Q8N128: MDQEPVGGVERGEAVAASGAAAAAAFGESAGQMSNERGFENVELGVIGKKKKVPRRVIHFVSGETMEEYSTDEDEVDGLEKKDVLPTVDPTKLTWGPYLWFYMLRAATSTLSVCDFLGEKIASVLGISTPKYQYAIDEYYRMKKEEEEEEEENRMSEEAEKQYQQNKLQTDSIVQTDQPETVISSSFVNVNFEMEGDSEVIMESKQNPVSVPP
UniProt Q9BYI3: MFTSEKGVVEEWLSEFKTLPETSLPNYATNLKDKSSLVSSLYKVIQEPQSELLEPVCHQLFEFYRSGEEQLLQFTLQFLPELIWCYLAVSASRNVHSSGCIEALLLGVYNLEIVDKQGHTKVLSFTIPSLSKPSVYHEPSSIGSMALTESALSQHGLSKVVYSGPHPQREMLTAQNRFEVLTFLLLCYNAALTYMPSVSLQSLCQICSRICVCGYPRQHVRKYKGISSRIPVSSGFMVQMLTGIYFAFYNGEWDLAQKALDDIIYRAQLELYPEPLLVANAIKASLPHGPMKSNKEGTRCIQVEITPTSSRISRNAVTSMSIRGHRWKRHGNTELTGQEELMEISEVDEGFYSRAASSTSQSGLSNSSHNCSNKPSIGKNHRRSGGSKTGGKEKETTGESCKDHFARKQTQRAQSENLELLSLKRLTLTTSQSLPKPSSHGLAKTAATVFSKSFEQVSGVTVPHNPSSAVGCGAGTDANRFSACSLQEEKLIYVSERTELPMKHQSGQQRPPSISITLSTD

Tests used:
Assay in all cases: log2 fold change, soluble protein after heating vs DMSO (PISA); higher = thermal stabilisation; K562 lysate, 10 uM; active = over 0.2 and 3.5 SD of the protein, either way, in both replicates (recomputed)
ibrutinib = compound: C=CC(=O)N1CCC[C@@H](n2nc(-c3ccc(Oc4ccccc4)cc3)c3c(N)ncnc32)C1 [ibrutinib]
Summary of the method: (§1)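 Values give the log-two fold change in thermal stability against solvent controls, from duplicates. Crude K562 extract at 1 mg/mL protein, made by dounce homogenisation in PBS pH 7.4 with 1 mM MgCl2, was treated with 10 μM compound for 30 min. After 3 min heating across 48°C-58°C, aliquots were pooled, adjusted to 0.5% NP-40 at 4°C and centrifuged at 21,000xg for 90 min. The supernatant was measured by TMTpro 16plex LC-MS/MS with channel sums equalised.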

[1] = compound: CC(=O)c1cnc2ccc(-c3cc(Cl)c(O)c(Cl)c3)nc2c1N[C@H]1CC[C@H](CN(C)C)CC1
Summary of the method: as §1

ralimetinib = compound: CC(C)(C)Cn1c(N)nc2ccc(-c3[nH]c(C(C)(C)C)nc3-c3ccc(F)cc3)nc21 [ralimetinib]
Summary of the method: as §1

[2] = compound: CC(C)(O)CC(=O)NCCn1ccc2ncnc(Nc3ccc(Oc4cccc(C(F)(F)F)c4)c(Cl)c3)c21
Summary of the method: as §1

[3] = compound: CC(C)C1=C2N=C(C=C(N2N=C1)NCC3=CC=CC=C3)NCCCCCCN
Summary of the method: as §1

[4] = compound: CC1=C(C(CC(=O)N1)C2=CC=C(C=C2)C(F)(F)F)C(=O)NC3=C(C=C4C(=C3)C=NN4)F
Summary of the method: as §1

[5] = compound: CC1=C(C2=C(C=C1)C(=O)C3=CC=CC=C3N2CCCN)C
Summary of the method: as §1

[6] = compound: CC1=C(C=C(C=C1)NC(=O)C2=CC(=CC=C2)C(C)(C)C#N)NC3=CC4=C(C=C3)N=CN(C4=O)C
Summary of the method: as §1

[7] = compound: CC1=C(C=C(C=C1)NC(=O)C2=CC(=CC=C2)N(C)C)NC(=O)C3=CC=C(C=C3)O
Summary of the method: as §1

[8] = compound: CC1=CC=C(C=C1)SC2=C3C=C(SC3=CN=C2)C(=O)N
Summary of the method: as §1

vemurafenib = compound: CCCS(=O)(=O)Nc1ccc(F)c(C(=O)c2c[nH]c3ncc(-c4ccc(Cl)cc4)cc23)c1F [vemurafenib]
Summary of the method: as §1

[9] = compound: CCCS(=O)(=O)Nc1ccc(F)c(C(=O)c2c[nH]c3ncc(Cl)cc23)c1F
Summary of the method: as §1

barasertib = compound: CCN(CCCOc1ccc2c(Nc3cc(CC(=O)Nc4cccc(F)c4)[nH]n3)ncnc2c1)CCOP(=O)(O)O [barasertib]
Summary of the method: as §1

[10] = compound: CC[C@@H]1C(=O)N(C)c2cnc(Nc3ccc(C(=O)NC4CCN(C)CC4)cc3OC)nc2N1C1CCCC1
Summary of the method: as §1

volasertib = compound: CC[C@@H]1C(=O)N(C)c2cnc(Nc3ccc(C(=O)N[C@H]4CC[C@H](N5CCN(CC6CC6)CC5)CC4)cc3OC)nc2N1C(C)C [volasertib]
Summary of the method: as §1

[11] = compound: CCn1c(C(=O)N(C2CC2)C2CC2)cc2c3c(ncn3C)c(Nc3cc(C)n(C)n3)nc21
Summary of the method: as §1

[12] = compound: CCn1cc(-c2ccnc3[nH]c(-c4cccc(CN(C)C)c4)cc23)c(-c2ccc(NC(=O)N(C)C)cc2)n1
Summary of the method: as §1

[13] = compound: CN1CCC(CNc2ccc3ncc(-c4cccc(OC(F)(F)F)c4)n3n2)CC1
Summary of the method: as §1

saracatinib = compound: CN1CCN(CCOc2cc(OC3CCOCC3)c3c(Nc4c(Cl)ccc5c4OCO5)ncnc3c2)CC1 [saracatinib]
Summary of the method: as §1

sotrastaurin = compound: CN1CCN(c2nc(C3=C(c4c[nH]c5ccccc45)C(=O)NC3=O)c3ccccc3n2)CC1 [sotrastaurin]
Summary of the method: as §1

Measured: log2 fold change

ETF1 (UniProt P62495)
inactive: ibrutinib -0.003 | [1] -0.004 | ralimetinib -0.015 | [2] -0.003 | [3] -0.022 | [4] -0.039 | [5] 0.016 | [6] 0.009 | [7] -0.009 | [8] 0.001 | vemurafenib 0.009 | [9] 0.004 | barasertib -0.013 | [10] -0.028 | volasertib 0.003 | [11] -0.029 | [12] 0.006 | [13] -0.008 | saracatinib -0.004 | sotrastaurin 0.018

FAM135A (UniProt Q9P2D6)
inactive: ibrutinib -0.052 | ralimetinib 0.027 | [2] -0.071 | [4] -0.35 | [5] -0.097 | [6] -0.005 | [7] -0.041 | barasertib 0.067 | [11] -0.003 | [12] 0.129 | [13] 0.01 | saracatinib 0.138 | sotrastaurin 0.076

FAM122B isoform 3 (UniProt Q7Z309)
inactive: ibrutinib 0.082 | [1] -0.056 | ralimetinib -0.05 | [2] -0.068 | [3] 0 | [5] 0.154 | [6] 0.021 | [7] 0.013 | [8] 0.002 | vemurafenib -0.108 | [9] -0.047 | barasertib -0.034 | [10] 0.139 | volasertib 0.029 | [11] -0.089 | [12] -0.095 | [13] 0.236 | saracatinib 0.034 | sotrastaurin 0.025

FAM32A (UniProt Q9Y421)
inactive: ibrutinib 0.109 | ralimetinib -0.035 | [2] 0.063 | [3] 0.012 | [5] -0.027 | [6] 0.069 | [7] 0.027 | vemurafenib 0.038 | barasertib 0.065 | [10] 0.097 | [11] -0.028 | [12] -0.036 | [13] 0.123 | saracatinib 0.039 | sotrastaurin -0.012

FAM241A (UniProt Q8N8J7)
inactive: ibrutinib 0.07 | [1] -0.046 | ralimetinib 0.008 | [2] 0.023 | [3] 0.004 | [5] 0.011 | [6] -0.029 | [7] 0.003 | [8] 0.009 | vemurafenib -0.012 | [9] -0.014 | barasertib 0.133 | [10] 0.007 | volasertib -0.007 | [11] 0.047 | [12] -0.12 | [13] 0 | saracatinib 0.006 | sotrastaurin 0.022

EXOSC2 (UniProt Q13868)
inactive: ibrutinib 0.015 | [1] -0.008 | ralimetinib 0.004 | [2] 0.003 | [3] -0.019 | [4] 0.007 | [5] -0.004 | [6] 0.008 | [7] 0.001 | [8] -0.004 | vemurafenib 0.021 | [9] 0.009 | barasertib 0.01 | [10] 0.014 | volasertib 0.013 | [11] -0.027 | [12] -0.052 | [13] 0.046 | saracatinib 0.029 | sotrastaurin 0.03

ERICH1 (UniProt Q86X53)
inactive: ibrutinib 0.219 | [1] -0.026 | ralimetinib 0.02 | [2] 0.022 | [3] 0.047 | [4] 0.057 | [5] -0.068 | [6] 0.012 | [7] -0.038 | [8] 0.001 | vemurafenib -0.059 | [9] 0.069 | barasertib 0.063 | [10] 0.002 | volasertib -0.028 | [11] -0.016 | [12] 0.009 | [13] -0.067 | saracatinib 0.037 | sotrastaurin 0.099

EXOG (UniProt Q9Y2C4)
inactive: ibrutinib -0.146 | [1] -0.02 | ralimetinib 0.033 | [2] -0.142 | [3] -0.03 | [4] 0.046 | [5] -0.02 | [7] -0.077 | [8] -0.02 | vemurafenib 0.078 | [9] -0.036 | barasertib -0.073 | [10] -0.104 | volasertib -0.088 | [11] 0.045 | [12] 0.039 | [13] 0.075 | saracatinib -0.004

FAM172A (UniProt Q8WUF8)
inactive: ibrutinib 0.025 | [1] 0.017 | ralimetinib -0.039 | [2] -0.094 | [3] 0.156 | [4] -0.125 | [5] -0.059 | [7] 0.054 | [8] 0.031 | vemurafenib -0.117 | [9] -0.01 | barasertib 0.163 | [10] -0.026 | volasertib -0.035 | [11] -0.085 | saracatinib -0.017

FAH isoform 2 (UniProt P16930)
inactive: ibrutinib -0.017 | [1] 0.044 | ralimetinib 0.119 | [2] -0.136 | [4] 0.137 | [5] -0.146 | [6] -0.358 | [7] -0.01 | [8] -0.105 | vemurafenib 0.118 | [9] 0.049 | barasertib 0.003 | [10] -0.104 | volasertib 0 | [11] -0.085 | [12] -0.293 | [13] 0.139 | saracatinib -0.02 | sotrastaurin 0.033

FAM114A1 (UniProt Q8IWE2)
inactive: ibrutinib 0.048 | [1] -0.056 | ralimetinib 0.179 | [2] 0.106 | [3] 0.033 | [5] 0.068 | [7] -0.188 | [8] 0.008 | vemurafenib 0.049 | [9] 0.036 | barasertib 0.034 | [10] 0.123 | volasertib 0.018 | [11] -0.042 | [12] -0.075 | [13] 0.05 | saracatinib -0.063

Reprinted from above (five entries):
FAM135A (UniProt Q9P2D6)
inactive: ibrutinib -0.052 | ralimetinib 0.027 | [2] -0.071 | [4] -0.35 | [5] -0.097 | [6] -0.005 | [7] -0.041 | barasertib 0.067 | [11] -0.003 | [12] 0.129 | [13] 0.01 | saracatinib 0.138 | sotrastaurin 0.076

FAM122B isoform 3 (UniProt Q7Z309)
inactive: ibrutinib 0.082 | [1] -0.056 | ralimetinib -0.05 | [2] -0.068 | [3] 0 | [5] 0.154 | [6] 0.021 | [7] 0.013 | [8] 0.002 | vemurafenib -0.108 | [9] -0.047 | barasertib -0.034 | [10] 0.139 | volasertib 0.029 | [11] -0.089 | [12] -0.095 | [13] 0.236 | saracatinib 0.034 | sotrastaurin 0.025

FAM32A (UniProt Q9Y421)
inactive: ibrutinib 0.109 | ralimetinib -0.035 | [2] 0.063 | [3] 0.012 | [5] -0.027 | [6] 0.069 | [7] 0.027 | vemurafenib 0.038 | barasertib 0.065 | [10] 0.097 | [11] -0.028 | [12] -0.036 | [13] 0.123 | saracatinib 0.039 | sotrastaurin -0.012

FAM241A (UniProt Q8N8J7)
inactive: ibrutinib 0.07 | [1] -0.046 | ralimetinib 0.008 | [2] 0.023 | [3] 0.004 | [5] 0.011 | [6] -0.029 | [7] 0.003 | [8] 0.009 | vemurafenib -0.012 | [9] -0.014 | barasertib 0.133 | [10] 0.007 | volasertib -0.007 | [11] 0.047 | [12] -0.12 | [13] 0 | saracatinib 0.006 | sotrastaurin 0.022

EXOSC2 (UniProt Q13868)
inactive: ibrutinib 0.015 | [1] -0.008 | ralimetinib 0.004 | [2] 0.003 | [3] -0.019 | [4] 0.007 | [5] -0.004 | [6] 0.008 | [7] 0.001 | [8] -0.004 | vemurafenib 0.021 | [9] 0.009 | barasertib 0.01 | [10] 0.014 | volasertib 0.013 | [11] -0.027 | [12] -0.052 | [13] 0.046 | saracatinib 0.029 | sotrastaurin 0.03

Next part.

FAM49A (UniProt Q9H0Q0)
inactive: ibrutinib 0.092 | [1] 0.089 | ralimetinib -0.069 | [2] -0.032 | [3] -0.05 | [4] -0.078 | [6] 0.04 | [7] 0.032 | [8] 0.079 | vemurafenib 0.009 | [9] 0.033 | barasertib 0.283 | [10] 0.324 | volasertib -0.066 | [11] 0.355 | [12] 0.031 | [13] -0.052 | sotrastaurin 0.061

ETFRF1 (UniProt Q6IPR1)
inactive: ibrutinib 0.062 | [1] 0.028 | ralimetinib -0.005 | [2] -0.044 | [3] -0.006 | [4] 0.049 | [5] -0.018 | [6] -0.071 | [7] 0.136 | [8] -0.02 | vemurafenib 0.084 | [9] -0.003 | barasertib 0.012 | volasertib -0.03 | [11] 0 | [12] -0.005 | [13] -0.03 | saracatinib -0.01 | sotrastaurin -0.002

FAHD2A (UniProt Q96GK7)
inactive: ibrutinib 0 | [1] -0.004 | ralimetinib 0.001 | [2] -0.026 | [3] -0.007 | [4] 0.012 | [5] 0.003 | [6] 0.031 | [7] -0.06 | [8] -0.015 | vemurafenib -0.005 | [9] 0.004 | barasertib -0.007 | [10] 0.032 | volasertib 0.002 | [11] -0.028 | [12] -0.037 | [13] 0.054 | saracatinib -0.02 | sotrastaurin -0.016

FAM177A1 isoform 2 (UniProt Q8N128)
inactive: ibrutinib 0.014 | [1] -0.022 | ralimetinib 0.03 | [2] -0.1 | [3] 0.008 | [4] 0.049 | [5] -0.017 | [6] 0.035 | [7] 0.061 | [8] -0.052 | vemurafenib -0.004 | [9] 0.004 | barasertib 0.092 | volasertib 0.032 | [11] -0.008 | [12] -0.045 | [13] -0.033 | saracatinib 0.048 | sotrastaurin -0.071

FAM136A (UniProt Q96C01)
inactive: ibrutinib 0.169 | [1] -0.014 | ralimetinib -0.003 | [2] -0.018 | [3] -0.015 | [4] 0.011 | [5] 0.001 | [6] -0.032 | [7] -0.013 | [8] 0.011 | vemurafenib 0.009 | [9] -0.018 | barasertib 0.086 | [10] 0.016 | volasertib 0.054 | [11] -0.005 | [12] 0.03 | [13] -0.011 | saracatinib 0.003 | sotrastaurin 0.077

FAM126A (UniProt Q9BYI3)
inactive: ibrutinib 0.038 | [1] 0.164 | ralimetinib 0.072 | [2] 0.006 | [3] 0.045 | [4] 0.182 | [5] -0.067 | [6] 0.079 | [7] 0.029 | [8] -0.022 | vemurafenib -0.062 | [9] 0.06 | barasertib 0.111 | volasertib -0.174 | [11] 0.064 | [12] -0.018 | [13] 0.166 | saracatinib 0.047 | sotrastaurin -0.007
